Literature values as cited in patent publication US10655124B2, “Proximity based methods for selection of binding partners” (THE SCRIPPS RESEARCH INSTITUTE, priority 2014, dated 2020).
At least one read-out could not be matched to a standard name with certainty.

biological target: TEV protease (Tobacco etch virus, UniProt P04517); conditions: cleavage by TEV protease; cited from earlier work

Row | Substance | kcats/Km
1 | ENLYYQS (SEQ ID NO:6) [TEV 3] | 56 ± 5 M⁻¹ s⁻¹
2 | ENFYFQS (SEQ ID NO:5) [TEV 2] | 24 ± 1 M⁻¹ s⁻¹
3 | ENLYFQS (SEQ ID NO:4) [TEV1] | 4510 ± 650 M⁻¹ s⁻¹
4 | ENLFFQS (SEQ ID NO:7) [TEV 4] | 350 ± 41 M⁻¹ s⁻¹
